Our source for the binding values is PMC10562413.

The chains behind the UniProt entries cited, without tags or fusion partners.
UniProt P40763: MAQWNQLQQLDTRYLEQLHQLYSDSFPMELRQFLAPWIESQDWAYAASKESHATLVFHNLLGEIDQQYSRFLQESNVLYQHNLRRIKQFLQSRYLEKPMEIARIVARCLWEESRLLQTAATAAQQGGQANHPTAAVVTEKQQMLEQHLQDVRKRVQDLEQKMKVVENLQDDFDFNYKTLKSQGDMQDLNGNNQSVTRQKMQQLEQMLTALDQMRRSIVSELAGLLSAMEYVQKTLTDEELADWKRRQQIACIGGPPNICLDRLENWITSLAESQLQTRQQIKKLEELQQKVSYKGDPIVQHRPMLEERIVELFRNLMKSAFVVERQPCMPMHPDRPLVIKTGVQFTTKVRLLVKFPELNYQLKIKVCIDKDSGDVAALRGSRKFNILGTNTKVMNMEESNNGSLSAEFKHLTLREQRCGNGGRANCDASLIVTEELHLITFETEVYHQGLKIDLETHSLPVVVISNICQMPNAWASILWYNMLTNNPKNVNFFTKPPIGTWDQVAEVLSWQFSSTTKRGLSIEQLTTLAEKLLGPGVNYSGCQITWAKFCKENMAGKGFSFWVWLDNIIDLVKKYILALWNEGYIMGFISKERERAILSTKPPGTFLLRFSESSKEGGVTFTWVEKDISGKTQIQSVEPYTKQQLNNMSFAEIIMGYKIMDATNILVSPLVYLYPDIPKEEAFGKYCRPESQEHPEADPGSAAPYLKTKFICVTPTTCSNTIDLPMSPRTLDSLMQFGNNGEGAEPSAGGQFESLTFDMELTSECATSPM
UniProt Q96LA8: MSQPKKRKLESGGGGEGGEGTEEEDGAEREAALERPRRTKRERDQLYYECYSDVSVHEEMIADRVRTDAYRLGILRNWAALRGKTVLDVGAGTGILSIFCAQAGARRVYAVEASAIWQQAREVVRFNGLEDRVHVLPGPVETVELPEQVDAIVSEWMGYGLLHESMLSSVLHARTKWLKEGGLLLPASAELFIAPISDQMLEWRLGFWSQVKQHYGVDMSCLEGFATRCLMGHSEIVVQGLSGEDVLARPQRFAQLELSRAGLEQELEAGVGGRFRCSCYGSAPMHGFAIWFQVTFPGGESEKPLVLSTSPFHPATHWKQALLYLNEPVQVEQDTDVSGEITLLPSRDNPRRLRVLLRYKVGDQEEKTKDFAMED

The target in this experiment is STAT3 (human (endogenous in MCF-7 and MDA-MB-468)) (UniProt P40763). Kind of experiment: co-IP; endogenous proteins in NP40 lysates of MCF-7 and MDA-MB-468 cells; antibody on Protein L magnetic beads, overnight at 4 °C, Western blot. A general note: A western blot detects proteins with antibodies after separation by electrophoresis.

Results are given in words; binding and its absence hold for the method and conditions named. In cells and extracts the contact can be indirect. Some binding calls cover weakened binding; strength is not graded here.

On to “PRMT6 (from UniProt Q96LA8 1-375) (enzyme)”, for which the binding entry is recorded as “binds”.
